Source: PMC11596155, “When Chirality Makes the Difference: The Case of Novel Enantiopure N-Heterocyclic Carbene–Gold and –Silver Complexes” (Molecules, 2024)

Test system: MCF-10A cells
Test: MTT assay, cytotoxicity on normal mammary epithelial cells MCF-10A
Format: cell-based, human
Description: All cell lines used for the reported studies were purchased from the American Type Culture Collection (ATCC, Manassas, VA, USA). Human breast cancer cells MCF-7 and MDA-MB-231 were maintained in Dulbecco’s Modified Eagle Medium/Nutrient Mixture F12 Ham (DMEM/F12) supplemented with 5% fetal bovine serum (FBS), 1% L-glutamine and 100 units/mL of penicillin/streptomycin. Human mammary epithelial cells MCF-10A were cultured in DMEM/F12 medium, supplemented with 5% horse serum (HS), 100 units/mL of penicillin/streptomycin, […], 0.02 µg/mL human epidermal growth factor (EGF), 10 µg/mL insulin and […] [34]. The murine macrophages RAW 264.7 were grown in Dulbecco’s Modified Eagle’s Medium (DMEM) high glucose (4.5 g/L), added with 10% fetal bovine serum (FBS), 1% L-glutamine and 100 units/mL of penicillin/streptomycin. Cells were maintained at 37 °C, in a humidified atmosphere containing 5% CO2.
Cell viability was determined using the 3-(4,5-dimethylthiazol-2-y1)-2,5-diphenyltetrazolium bromide assay (MTT, Sigma-Aldrich, Milan, Italy), as in [35]. Cells were treated for 72 h (anticancer activity) or 24 h (anti-inflammatory activity) at different concentrations and the IC50 values were obtained using GraphPad Prism 9 software (GraphPad Software, La Jolla, CA, USA).

CN1C(Cl)=C(Cl)N(C[C@H](O)c2ccccc2)[CH]1[Au-][Cl] (stereo partly drawn) [(R)-AuL2, (4,5-dichloro-1-((R)-2-hydroxy-2-phenylethyl)-3-methyl-2,3-dihydro-1H-imidazol-2-yl)gold(I) chloride]
IC50 MCF-10A fold higher than IC50 MCF-7 (selectivity normal vs MCF-7 cells): about 19 fold
IC50 MCF-10A fold higher than IC50 MDA-MB-231 (selectivity normal vs MDA-MB-231 cells): ~38 fold

CN1C(Cl)=C(Cl)N(C[C@@H](O)c2ccccc2)[CH]1[Au-][Cl] (stereo partly drawn) [(S)-AuL2, (4,5-dichloro-1-((S)-2-hydroxy-2-phenylethyl)-3-methyl-2,3-dihydro-1H-imidazol-2-yl)gold(I) chloride]
IC50 MCF-10A fold higher than those of the breast cancer cells (selectivity normal vs breast cancer cells (MCF-7, MDA-MB-231)): 1.5 fold
